Test results: the supplement of paper PMC8728848
The list shows a part of the results.

What was measured:
Test in all cases: glycan array binding signal (z-score within array); higher = stronger binding
Details in all cases: glycan notation: IUPAC condensed, linker removed
Fuc(a1-2)Gal = target: Fuc(a1-2)Gal
Procedure, shortened: (§1)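 Glycan array data came from 3228 arrays in the Consortium for Functional Glycomics database, and only arrays with an available protein sequence were kept. Glycan names were put into IUPAC-condensed notation, and columns mapping to the same glycan were averaged. The binding signal is a within-array Z-score, averaged across arrays of one protein sequence run at different concentrations or buffers and across linkers. A negative Z-score can be read as non-binding.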

Fuc(a1-2)Gal(b1-3)GalNAc = target: Fuc(a1-2)Gal(b1-3)GalNAc
Procedure, shortened: as §1

[1] = target: Fuc(a1-2)Gal(b1-3)GalNAc(a1-3)[Fuc(a1-2)]Gal(b1-4)Glc
Procedure, shortened: as §1

[2] = target: Fuc(a1-2)Gal(b1-3)GalNAc(a1-3)[Fuc(a1-2)]Gal(b1-4)GlcNAc
Procedure, shortened: as §1

[3] = target: Fuc(a1-2)Gal(b1-3)GalNAc(b1-3)Gal
Procedure, shortened: as §1

[4] = target: Fuc(a1-2)Gal(b1-3)GalNAc(b1-3)Gal(a1-4)Gal(b1-4)Glc
Procedure, shortened: as §1

[5] = target: Fuc(a1-2)Gal(b1-3)GalNAc(b1-4)[Neu5Ac(a2-3)]Gal(b1-4)Glc
Procedure, shortened: as §1

Fuc(a1-2)Gal(b1-3)GlcNAc = target: Fuc(a1-2)Gal(b1-3)GlcNAc
Procedure, shortened: as §1

[6] = target: Fuc(a1-2)Gal(b1-3)GlcNAc(b1-2)Man(a1-3)[Fuc(a1-2)Gal(b1-3)GlcNAc(b1-2)Man(a1-6)]Man(b1-4)GlcNAc(b1-4)GlcNAc
Procedure, shortened: as §1

[7] = target: Fuc(a1-2)Gal(b1-3)GlcNAc(b1-2)Man(a1-3)[Fuc(a1-2)Gal(b1-3)GlcNAc(b1-2)Man(a1-6)]Man(b1-4)GlcNAc(b1-4)[Fuc(a1-6)]GlcNAc
Procedure, shortened: as §1

[8] = target: Fuc(a1-2)Gal(b1-3)GlcNAc(b1-3)Gal(b1-4)Glc
Procedure, shortened: as §1

[9] = target: Fuc(a1-2)Gal(b1-3)GlcNAc(b1-3)GalNAc
Procedure, shortened: as §1

[10] = target: Fuc(a1-2)Gal(b1-3)GlcNAc(b1-3)[Fuc(a1-2)Gal(b1-3)GlcNAc(b1-6)]GalNAc
Procedure, shortened: as §1

[11] = target: Fuc(a1-2)Gal(b1-3)GlcNAc(b1-3)[Fuc(a1-3)[Gal(b1-4)]GlcNAc(b1-6)]Gal(b1-4)Glc
Procedure, shortened: as §1

[12] = target: Fuc(a1-2)Gal(b1-3)GlcNAc(b1-3)[Gal(b1-4)GlcNAc(b1-6)]Gal(b1-4)Glc
Procedure, shortened: as §1

[13] = target: Fuc(a1-2)Gal(b1-3)GlcNAc(b1-3)[Neu5Ac(a2-6)Gal(b1-4)GlcNAc(b1-6)]Gal(b1-4)Glc
Procedure, shortened: as §1

[14] = target: Fuc(a1-2)Gal(b1-3)GlcNAc6S
Procedure, shortened: as §1

[15] = target: Fuc(a1-2)Gal(b1-3)[Fuc(a1-4)]GlcNAc
Procedure, shortened: as §1

[16] = target: Fuc(a1-2)Gal(b1-3)[Fuc(a1-4)]GlcNAc(b1-2)Man(a1-3)[Fuc(a1-2)Gal(b1-3)[Fuc(a1-4)]GlcNAc(b1-2)Man(a1-3)]Man(b1-4)GlcNAc(b1-4)GlcNAc
Procedure, shortened: as §1

[17] = target: Fuc(a1-2)Gal(b1-3)[Fuc(a1-4)]GlcNAc(b1-2)Man(a1-3)[Fuc(a1-2)Gal(b1-3)[Fuc(a1-4)]GlcNAc(b1-2)Man(a1-6)]Man(b1-4)GlcNAc(b1-4)GlcNAc
Procedure, shortened: as §1

[18] = target: Fuc(a1-2)Gal(b1-3)[Fuc(a1-4)]GlcNAc(b1-2)Man(a1-3)[Fuc(a1-2)Gal(b1-3)[Fuc(a1-4)]GlcNAc(b1-2)Man(a1-6)]Man(b1-4)GlcNAc(b1-4)[Fuc(a1-6)]GlcNAc(b1-4)[Fuc(a1-6)]GlcNAc
Procedure, shortened: as §1

[19] = target: Fuc(a1-2)Gal(b1-3)[Fuc(a1-4)]GlcNAc(b1-3)[Fuc(a1-3)[Gal(b1-4)]GlcNAc(b1-6)]Gal(b1-4)Glc
Procedure, shortened: as §1

[20] = target: Fuc(a1-2)Gal(b1-3)[Fuc(a1-4)]GlcNAc(b1-3)[Gal(b1-4)GlcNAc(b1-6)]Gal(b1-4)Glc
Procedure, shortened: as §1

[21] = target: Fuc(a1-2)Gal(b1-4)Fuc(a1-3)]GlcNAc(b1-2)Man(a1-3)[Fuc(a1-2)Gal(b1-4)[Fuc(a1-3)]GlcNAc(b1-2)Man(a1-6)]Man(b1-4)GlcNAc(b1-4)GlcNAc
Procedure, shortened: as §1

Fuc(a1-2)Gal(b1-4)Glc = target: Fuc(a1-2)Gal(b1-4)Glc
Procedure, shortened: as §1

Fuc(a1-2)Gal(b1-4)Glc6S = target: Fuc(a1-2)Gal(b1-4)Glc6S
Procedure, shortened: as §1

Fuc(a1-2)Gal(b1-4)GlcNAc = target: Fuc(a1-2)Gal(b1-4)GlcNAc
Procedure, shortened: as §1

[22] = target: Fuc(a1-2)Gal(b1-4)GlcNAc(b1-2)Man
Procedure, shortened: as §1

[23] = target: Fuc(a1-2)Gal(b1-4)GlcNAc(b1-2)Man(a1-3)[Fuc(a1-2)Gal(b1-4)GlcNAc(b1-2)Man(a1-6)]Man(b1-4)GlcNAc(b1-4)GlcNAc
Procedure, shortened: as §1

[24] = target: Fuc(a1-2)Gal(b1-4)GlcNAc(b1-2)Man(a1-3)[Fuc(a1-2)Gal(b1-4)GlcNAc(b1-2)Man(a1-6)]Man(b1-4)GlcNAc(b1-4)[Fuc(a1-6)]GlcNAc
Procedure, shortened: as §1

[25] = target: Fuc(a1-2)Gal(b1-4)GlcNAc(b1-2)[Fuc(a1-2)Gal(b1-4)GlcNAc(b1-4)]Man(a1-3)[Fuc(a1-2)Gal(b1-4)GlcNAc(b1-2)Man(a1-6)]Man(b1-4)GlcNAc(b1-4)GlcNAc
Procedure, shortened: as §1

[26] = target: Fuc(a1-2)Gal(b1-4)GlcNAc(b1-3)Gal(b1-4)GlcNAc
Procedure, shortened: as §1

[27] = target: Fuc(a1-2)Gal(b1-4)GlcNAc(b1-3)Gal(b1-4)GlcNAc(b1-2)Man(a1-3)[Fuc(a1-2)Gal(b1-4)GlcNAc(b1-3)Gal(b1-4)GlcNAc(b1-2)Man(a1-6)]Man(b1-4)GlcNAc(b1-4)GlcNAc
Procedure, shortened: as §1

[28] = target: Fuc(a1-2)Gal(b1-4)GlcNAc(b1-3)Gal(b1-4)GlcNAc(b1-3)Gal(b1-4)GlcNAc
Procedure, shortened: as §1

[29] = target: Fuc(a1-2)Gal(b1-4)GlcNAc(b1-3)GalNAc
Procedure, shortened: as §1

[30] = target: Fuc(a1-2)Gal(b1-4)GlcNAc(b1-3)[Fuc(a1-2)Gal(b1-4)GlcNAc(b1-6)]GalNAc
Procedure, shortened: as §1

[31] = target: Fuc(a1-2)Gal(b1-4)GlcNAc(b1-3)[Fuc(a1-3)[Gal(b1-4)]GlcNAc(b1-6)]Gal(b1-4)Glc
Procedure, shortened: as §1

B1: GST Gap3 (Streptococcus parasanguinis) (protein)
chain: MTKQLISEIYWNEIRKGENYLYGSQIKFQEDLVNFYNPQLASGKPIVTFKSRTNYQGDRHSPDLPILIQGNRYLLEYQIDAVPANSFFLQLDFFNRQAEQIESIVLRNSGESFIFPKDTFTYTLTLMSAGCQSVTYQKFMIYDINDEEKKNHIVENRYLRELLPKDLDLVKNLIEYI
glycan array binding signal (z-score) (Fuc(a1-2)Gal): -0.144
glycan array binding signal (z-score) (Fuc(a1-2)Gal(b1-3)GalNAc): 0.147
glycan array binding signal (z-score) [1]: 0.177
glycan array binding signal (z-score) [2]: -0.202
glycan array binding signal (z-score) [3]: -0.338
glycan array binding signal (z-score) [4]: -0.271
glycan array binding signal (z-score) [5]: -0.101
glycan array binding signal (z-score) (Fuc(a1-2)Gal(b1-3)GlcNAc): -0.387
glycan array binding signal (z-score) [6]: 0.562
glycan array binding signal (z-score) [7]: 0.534
glycan array binding signal (z-score) [8]: -0.252
glycan array binding signal (z-score) [9]: -0.456
glycan array binding signal (z-score) [10]: 0.238
glycan array binding signal (z-score) [11]: -0.027
glycan array binding signal (z-score) [12]: -0.367
glycan array binding signal (z-score) [13]: -0.285
glycan array binding signal (z-score) [14]: -0.236
glycan array binding signal (z-score) [15]: -0.222
glycan array binding signal (z-score) [16]: 2.3
glycan array binding signal (z-score) [17]: 0.461
glycan array binding signal (z-score) [18]: 0.25
glycan array binding signal (z-score) [19]: -0.258
glycan array binding signal (z-score) [20]: -0.083
glycan array binding signal (z-score) [21]: 0.885
glycan array binding signal (z-score) (Fuc(a1-2)Gal(b1-4)Glc): -0.304
glycan array binding signal (z-score) (Fuc(a1-2)Gal(b1-4)Glc6S): -0.171
glycan array binding signal (z-score) (Fuc(a1-2)Gal(b1-4)GlcNAc): -0.266
glycan array binding signal (z-score) [22]: -0.166
glycan array binding signal (z-score) [23]: 3.16
glycan array binding signal (z-score) [24]: -0.105
glycan array binding signal (z-score) [25]: 0.713
glycan array binding signal (z-score) [26]: 0.219
glycan array binding signal (z-score) [27]: -0.156
glycan array binding signal (z-score) [28]: 0.296
glycan array binding signal (z-score) [29]: 0.444
glycan array binding signal (z-score) [30]: 0.444
glycan array binding signal (z-score) [31]: -0.573
